## Binding screen against folded nucleic acids

From ROBIN, a set of small-molecule microarray screens (doi:10.1002/anie.202211358).

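The test is a small-molecule microarray: each compound is printed twice on a reactive slide, and binding shows as fluorescence of the labelled oligonucleotide after washing. The data file lists only calls. An earlier report of the laboratory on the PreQ1, TPP and SAM-II riboswitches (doi:10.1038/s41467-019-09493-3) used 1 µM RNA for 2 h and required a mean Z-score above 3 (spot signal-to-noise against the whole library), a score well above that on a control array, and duplicate spots agreeing (coefficient of variation under 100); it then also set aside compounds that hit other targets, which this list keeps. The cut-offs behind this list may differ. A missing hit is not proof of no binding, and a hit is not a measured affinity.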 “active” means called a hit, “inactive” means screened and not called a hit. The compounds are a random part of those screened. A target missing from an entry has no call listed here. A dash means that no call is listed here.

Oligonucleotides screened, 5′ to 3′:
TPP: TPP riboswitch RNA three-way junction, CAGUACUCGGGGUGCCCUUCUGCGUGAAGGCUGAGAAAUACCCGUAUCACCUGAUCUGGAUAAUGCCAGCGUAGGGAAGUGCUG. Hit rate about 0.7% of about 24,000 compounds.
PreQ1: PreQ1 riboswitch RNA pseudoknot, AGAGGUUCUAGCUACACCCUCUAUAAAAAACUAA. From B. subtilis. Hit rate about 0.7% of about 24,000 compounds.
SAM-II: SAM-II riboswitch RNA pseudoknot, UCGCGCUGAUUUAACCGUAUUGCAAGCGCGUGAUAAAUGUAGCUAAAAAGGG. Hit rate about 1% of about 21,000 compounds.

For Cc1nnc(SCC(=O)O)[nH]1 the calls were TPP: inactive; PreQ1: inactive; SAM-II: inactive. Calls for Cc1cnn(C2(C(=O)O)CCN(c3nccc(N4CCC(O)C4)n3)CC2)c1 (centres undefined) are TPP: inactive; PreQ1: inactive; SAM-II: inactive. Cc1ccc(-c2nc(S(=O)(=O)c3ccc(F)cc3)c(NC3CC3)o2)cc1 was scored TPP: inactive; PreQ1: inactive. CN(Cc1cc(C(C)(C)C)n[nH]1)c1cc(N2CCOCC2)nc(N)n1 was scored TPP: inactive; PreQ1: inactive; SAM-II: inactive. Calls for CCN(CC)C(=O)[C@@H]1C[C@H](N)CN1C(=O)c1cccc(-n2cnnc2)c1 are TPP: inactive; PreQ1: inactive; SAM-II: inactive.

Calls for Cc1nc(N)nc(S)n1 are TPP: inactive; PreQ1: inactive; SAM-II: inactive. With N#CC1=C(N)Oc2[nH]nc(-c3ccc4c(c3)OCO4)c2C1c1ccccc1Cl (centres undefined) the screen gave TPP: inactive; PreQ1: inactive; SAM-II: inactive. For Cc1n[nH]c(C)c1CCC(=O)N1C[C@@H](CN2CCN(C)CC2)[C@@H](CO)C1 the calls were TPP: inactive; PreQ1: inactive; SAM-II: inactive. Calls for Cc1cccc(C(O)C(O)c2cccc(C)n2)n1 (centres undefined) are TPP: inactive; PreQ1: inactive; SAM-II: inactive. Calls for NC(=O)c1ccc(N2CCN(Cc3c[nH]nn3)CC(O)C2)nc1 (centres undefined) are TPP: inactive; PreQ1: inactive; SAM-II: inactive.

Nc1cnc(-c2cccc3ncccc23)cn1 was scored TPP: inactive; PreQ1: inactive; SAM-II: inactive. With CCOC(=O)C1=C(N)Oc2c(oc(CO)cc2=O)C1c1cc(F)ccc1F (centres undefined) the screen gave TPP: inactive; PreQ1: inactive; SAM-II: inactive. Nc1c(-c2ccc(Cl)cc2)cnc2c(-c3ccccc3)cnn12 was scored TPP: inactive; PreQ1: inactive; SAM-II: inactive. N[C@H]1CN(C(=O)CCc2cc(Cl)no2)C[C@@H]1c1ccccc1 was scored TPP: inactive; PreQ1: inactive; SAM-II: inactive. For O=C(COc1cccc(Cl)c1)N1CCCC2(CCNC2)C1 (centres undefined) the calls were TPP: inactive; PreQ1: inactive; SAM-II: inactive.

For OCCN1CCCC(Cn2cnc(-c3ccccc3)c2-c2cccc(O)c2)C1 (centres undefined) the calls were TPP: inactive; PreQ1: inactive; SAM-II: inactive. For COc1ccc2c(CNCc3ccc(C)o3)c(C(=O)O)n(Cc3ccc(F)cc3)c2c1 the calls were TPP: inactive; PreQ1: inactive. Calls for COc1ccc(C2CC(c3ccccc3)=NN2c2ccc(S(N)(=O)=O)cc2)cc1 (centres undefined) are TPP: inactive; PreQ1: inactive; SAM-II: inactive. With Clc1ccccc1-c1nnc(-c2ccccc2CNc2ccccc2)o1 the screen gave TPP: inactive; PreQ1: inactive; SAM-II: inactive. Calls for NC(=O)c1[nH]ncc1NCc1ccccn1 are TPP: inactive; PreQ1: inactive; SAM-II: inactive.

Calls for Cc1c(CN(C)C2CCC3(CCNCC3)CC2)cnn1C are TPP: inactive; PreQ1: inactive; SAM-II: inactive.

The first 3 entries again:

structure,TPP,PreQ1,SAM-II
Cc1nnc(SCC(=O)O)[nH]1,inactive,inactive,inactive
Cc1cnn(C2(C(=O)O)CCN(c3nccc(N4CCC(O)C4)n3)CC2)c1 (centres undefined),inactive,inactive,inactive
Cc1ccc(-c2nc(S(=O)(=O)c3ccc(F)cc3)c(NC3CC3)o2)cc1,inactive,inactive,-